Laboratory results published in patent US20260079169A1, “VOLATILE ORGANIC COMPOUNDS AS MARKERS FOR CELLULAR COMMUNICATION” (Technion Research and Development Foundation Limited, priority 2020, published 2026).
No dose or concentration is given here for some results.

Legend:
[1] = system: different-cell pairs of BEAS-2B, A549, H1299, H1975 without physical contact under a mutual headspace; test: VOCs headspace analysis (ITEX GC-MS) of different-cell pair co-culture headspace groups (Format-3), bulk cell samples; type: cell-based, human; design: key to Category (VOC increased or decreased relative to the control): ↑: Increased; ↓: decreased; ↑*: <0.01; ↑**: <0.001; details: for VOC area under curve (AUC) normalized by STD AUC, B + C / VOC area under curve (AUC) normalized by STD AUC, B + D / VOC area under curve (AUC) normalized by STD AUC, A + B / VOC area under curve (AUC) normalized by STD AUC, A + C / VOC area under curve (AUC) normalized by STD AUC, A + D / VOC area under curve (AUC) normalized by STD AUC, C + D: bulk 1 × 10^4 cell; for VOC area under curve (AUC) normalized by STD AUC, B + C: A549 + H1299; for VOC area under curve (AUC) normalized by STD AUC, B + D: A549 + H1975; for VOC area under curve (AUC) normalized by STD AUC, A + B: BEAS-2B + A549; for VOC area under curve (AUC) normalized by STD AUC, A + C: BEAS-2B + H1299; for VOC area under curve (AUC) normalized by STD AUC, A + D: BEAS-2B + H1975; for VOC area under curve (AUC) normalized by STD AUC, C + D: H1299 + H1975; for Category (VOC increased or decreased relative to the control): different-cell pair co-culture headspace (Format-3), averaged peak area (n = 3)
[2] = system: A549, H1299, H1975 human lung cancer lines and BEAS-2B normal cell line, each cultured alone; test: VOCs headspace analysis (ITEX GC-MS) of mono-culture groups (Format-1), bulk cell samples 1×10^4 cells; type: cell-based; design: key to Category (VOC increased or decreased relative to the control): ↑: Increased; ↓: decreased; ↑*: <0.01; ↑**: <0.001; details: for VOC area under curve (AUC) normalized by STD AUC, A / VOC area under curve (AUC) normalized by STD AUC, B / VOC area under curve (AUC) normalized by STD AUC, C / VOC area under curve (AUC) normalized by STD AUC, D: bulk 1 × 10^4 cell; for VOC area under curve (AUC) normalized by STD AUC, A: A: BEAS-2B mono-culture headspace; for VOC area under curve (AUC) normalized by STD AUC, B: B: A549 mono-culture headspace; for VOC area under curve (AUC) normalized by STD AUC, C: C: H1299 mono-culture headspace; for VOC area under curve (AUC) normalized by STD AUC, D: D: H1975 mono-culture headspace; for Category (VOC increased or decreased relative to the control): mono-culture groups (Format-1), averaged peak area (n = 3)

Row | SMILES | VOC area under curve (AUC) normalized by STD AUC, B + C [1] | VOC area under curve (AUC) normalized by STD AUC, B + D [1] | VOC area under curve (AUC) normalized by STD AUC, A + B [1] | VOC area under curve (AUC) normalized by STD AUC, A + C [1] | VOC area under curve (AUC) normalized by STD AUC, A + D [1] | VOC area under curve (AUC) normalized by STD AUC, C + D [1] | VOC area under curve (AUC) normalized by STD AUC, A [2] | VOC area under curve (AUC) normalized by STD AUC, B [2] | VOC area under curve (AUC) normalized by STD AUC, C [2] | VOC area under curve (AUC) normalized by STD AUC, D [2] | Category (VOC increased or decreased relative to the control) ([1]; 72 h) | Category (VOC increased or decreased relative to the control) ([2]; 48 h incubation) | Category (VOC increased or decreased relative to the control) ([1]; 24 h) | Category (VOC increased or decreased relative to the control) ([2]; 72 h incubation)
1 | C=C(C)CCC(C)CC (stereo not shown) [VOC99] | 2.047 | 0 | 8.012 | 2.549 | 6.62 | 0 | 5.971 | 8.012 | 0 | 0 |  |  |  | 
2 | CC(C)(O)CCC(C)(C)O [VOC100] | 7.283 | 6.345 | 3.9 | 5.457 | 5.288 | 6.371 | 0 | 7.882 | 7.3418 | 6.549 |  |  |  | 
3 | CCCOC(=O)c1cc(C(F)(F)F)ccc1F [VOC101] | 2.071 | 0 | 0 | 2.164 | 0 | 2.133 | 0 | 1 | 6.0138 | 0 |  |  |  | 
4 | CC=O [VOC102] | 0 | 0 | 2.115 | 9.268 | 3.917 | 2.629 | 7.237 | 0 | 4.0608 |  |  |  |  | 
5 | CC(=O)CCCCC(Cl)Cl [VOC103] | 0 | 0 | 3.917 | 3.297 | 8.44 |  | 4.213 | 0 | 0 | 4.11 |  |  |  | 
6 | CC(=O)c1ccc2c(C)cc(C)cc(C)c1-2 [VOC104] | 5.011 | 0 | 1.887 | 2.721 | 0 | 0 | 0 | 4.735 | 6.4451 | 0 |  |  |  | 
7 | Cc1ccccc1C [o-Xylene] |  |  |  |  |  |  |  |  |  |  | ↑ | ↓ |  | 
8 | Cc1ccc(C=O)cc1 [p-Tolualdehyde] |  |  |  |  |  |  |  |  |  |  |  |  | ↑* (↑*: <0.01) | ↑* (↑*: <0.01)
9 | C/C=C/C(C)C [trans-4-Methyl-2-pentene] |  |  |  |  |  |  |  |  |  |  | ↑* (↑*: <0.01) | ↑ |  | 
